Measurements from paper PMC6906297.
Results are given in words; binding and its absence hold for the method and conditions named. In cells and extracts the contact can be indirect. Sequences can lack the tags named with a protein.

Target: T1, RNF125, tagged, transfected (UniProt Q96EQ8)
T1 sequence: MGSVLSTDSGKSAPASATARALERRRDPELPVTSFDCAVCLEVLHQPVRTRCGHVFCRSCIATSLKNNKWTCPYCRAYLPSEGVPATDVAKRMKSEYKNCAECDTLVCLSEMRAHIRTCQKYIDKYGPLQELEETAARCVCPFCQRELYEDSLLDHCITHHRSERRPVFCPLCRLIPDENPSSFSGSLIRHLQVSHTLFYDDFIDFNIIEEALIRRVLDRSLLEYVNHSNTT
Assay: co-IP; HEK293T cells (2 x 10^6) transfected with the indicated plasmids for 24 h; lysate with monoclonal antibody or control mouse IgG and protein G agarose, 4 °C, 2 h; washed with lysis buffer containing 0.5 M NaCl; western blot

binding: no binding
Substance: G3BP1 acidic domain (human) (domain or fragment)
